According to PubChem BioAssay AID587 (National Center for Advancing Translational Sciences (NCATS), 2007):
In all, about 59,000 compounds went through this assay and about 35 (0.06%) were called active. The shares of active, inactive and inconclusive entries below differ from those in the screen. No stated cut-off is given here; in the data, active means max dye-equivalent concentration above about 10 nM; inconclusive means between about 1.1 nM and that limit; inactive means weaker than that.

Experiment: qHTS Assay for Spectroscopic Profiling in Texas Red Spectral Region
Conditions: Compound fluorescence, Texas Red channel, 547/618 nm; hits give high values
How it was run: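 Compound fluorescence was read after 15 min at room temperature in 100 mM Tris, pH 8.0, using 547 nm excitation and 618 nm emission across a concentration series. It was expressed as Texas Red dye-equivalent concentration from an on-plate standard curve.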

SMILES	max dye-equivalent concentration
CN(C1CCS(=O)(=O)C1)S(=O)(=O)c1ccc(C2CCCCC2)cc1 (configuration not stated)	inconclusive: 1.4 nM
CCc1ccccc1NC(=O)CSc1nnc(-c2ccco2)n1N	inconclusive: 1.1 nM
Cc1cc(NC(=O)CSc2nc3ccccc3c(=O)n2CCCC(=O)NCc2ccco2)n[nH]1	inconclusive: 1.1 nM
CCOC(=O)CN1C(=O)C(CC)Oc2ccc(Cl)cc21 (configuration not stated)	inconclusive: 1.1 nM
Cc1ccc2nc(-c3cccc(NC(=O)c4ccc5c(c4)OCCO5)c3)oc2c1	inconclusive: 1.2 nM
CCc1ccc(OCc2nnc(SCCN3CCOCC3)n2C)cc1	inconclusive: 1.1 nM
CC[C@]1(O)C[C@H]2CN(CCc3c([nH]c4ccccc34)[C@](C(=O)OC)(c3cc4c(cc3OC)N(C)[C@@H]3[C@](O)(C(=O)OC)[C@H](OC(C)=O)[C@]5(CC)C=CCN6CC[C@]43[C@@H]65)C2)C1	inactive
O=C(Nc1ccc2c(c1)OCO2)c1ccc(S(=O)(=O)NCC2CCCO2)cc1 (configuration not stated)	inconclusive: 1.2 nM
CCC(=O)Nc1c(C)c(CC)nc2ccccc12	inconclusive: 2.1 nM
COc1ccc(-c2ccc(-c3noc(C(C)C)n3)c(OC)n2)cc1	inconclusive: 1.3 nM
CCOC(=O)C1CCN(S(=O)(=O)c2cccc(-c3cn4ccccc4n3)c2)CC1	inconclusive: 1.4 nM
CCOc1cc(C(=O)NCC(C)CN(C)C)cc(OCC)c1OCC (configuration not stated)	inconclusive: 1.9 nM
CCc1nc(SCC(=O)N2CCN(C(=O)c3ccco3)CC2)c2c3c(sc2n1)CCCC3	inconclusive: 1.8 nM
COc1ccc(OC)c(-n2c(N)c(C(=O)NCC3CCCO3)c3nc4ccccc4nc32)c1 (configuration not stated)	inconclusive: 1.9 nM
CN(C)CN1CSC(=S)N(CN(C)C)C1	inactive
FC(F)(F)COc1nc(OCC(F)(F)F)nc(N2CCN(c3ccccc3)CC2)n1	inconclusive: 1.8 nM
CCOC(=O)c1ccc2c(c1)nc(SCC(=O)c1ccco1)n2CC	inconclusive: 1.2 nM
CCOc1cccc(-n2nnnc2-c2ccc(OC)cc2)c1	inconclusive: 1.1 nM
COC(=O)c1ccc(Cc2ccc(C(=O)OC)o2)o1	inconclusive: 1.1 nM
COCCn1c(SCC(=O)N2CCCc3ccccc32)nc2ccccc2c1=O	inconclusive: 2.1 nM
Cn1c(=O)[nH]c(=O)c2c1nc(N1CCc3ccccc3C1)n2CCSc1nc2ccccc2s1	inconclusive: 1.1 nM
COC(=O)c1[nH]c2ccc(C)cc2c1NC(=O)CN1CCCCC1C (configuration not stated)	inconclusive: 1.2 nM

3 compounds out of the list, ordered by length of the SMILES, rising.
SMILES	max dye-equivalent concentration
CCC(=O)Nc1c(C)c(CC)nc2ccccc12	inconclusive: 2.1 nM
COC(=O)c1ccc(Cc2ccc(C(=O)OC)o2)o1	inconclusive: 1.1 nM
CCOc1cc(C(=O)NCC(C)CN(C)C)cc(OCC)c1OCC (configuration not stated)	inconclusive: 1.9 nM
